Reference: PubChem BioAssay AID1259254 (NCATS, 2017)
Purpose: 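Genome-wide screen for genes that prevent DNA re-replication in cancer cells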 (primary screen). Cells: human HCT116 colorectal cancer cells. Knock-down reagent: single siRNA against human genes. Timing: 3 days. Read-out: 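Nuclei stained with Hoechst and imaged; cell-cycle phase assigned by DNA content; G2 share scaled per plate, non-targeting siRNA 0%, GMNN siRNA 100%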. Reading the numbers: G2 robust z-score: higher = more G2 cells, more excess DNA replication. Rule for the call: 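An siRNA counts as active if its G2 robust z-score lies at least 5 MADs above the screen median; here such calls match roughly 38% of GMNN control or more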.
This is a random part of about 59,000 reagents. Of all reagents, about 1,550 (2.6%) got an active call. 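G2 share is only a proxy for re-replication; each gene was hit by three separate siRNAs, and active genes were retested.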 The numbers tell different reagents against one gene apart. Not all columns of the deposit are shown. Not given: the amount of reagent.

gene | siRNA no. | G2 robust z-score | outcome
EIF3E | 1 | 2.55 | inactive
EIF3E | 2 | 2.84 | inactive
EIF3E | 3 | 4.62 | inactive
MAMLD1 | 1 | -0.477 | inactive
MAMLD1 | 2 | -0.284 | inactive
MAMLD1 | 3 | -0.311 | inactive
GSTK1 | 1 | 0.791 | inactive
GSTK1 | 2 | 0.401 | inactive
GSTK1 | 3 | 2.07 | inactive
CEACAM22P | 1 | -0.852 | inactive
CEACAM22P | 2 | 0.544 | inactive
CEACAM22P | 3 | -0.454 | inactive
EHD3 | 1 | -1.26 | inactive
EHD3 | 2 | 1.39 | inactive
EHD3 | 3 | -0.151 | inactive
IPCEF1 | 1 | 0.46 | inactive
IPCEF1 | 2 | -1.27 | inactive
IPCEF1 | 3 | -0.639 | inactive
CLDN20 | 1 | 0.875 | inactive
CLDN20 | 2 | -0.00232 | inactive
CLDN20 | 3 | -1.1 | inactive
SDF2L1 | 1 | 1.01 | inactive
SDF2L1 | 2 | 1.24 | inactive
SDF2L1 | 3 | 1.83 | inactive
GRM4 | 1 | -1.38 | inactive
GRM4 | 2 | 1.04 | inactive
GRM4 | 3 | -0.593 | inactive
ECHDC1 | 1 | 2.6 | inactive
ECHDC1 | 2 | 1.9 | inactive
ECHDC1 | 3 | 0.168 | inactive
